Experimental data as given in PMC5566433.

Biological target: T1, neuroserpin (human retina) (human (endogenous in retina)) (UniProt Q99574)
T1 sequence: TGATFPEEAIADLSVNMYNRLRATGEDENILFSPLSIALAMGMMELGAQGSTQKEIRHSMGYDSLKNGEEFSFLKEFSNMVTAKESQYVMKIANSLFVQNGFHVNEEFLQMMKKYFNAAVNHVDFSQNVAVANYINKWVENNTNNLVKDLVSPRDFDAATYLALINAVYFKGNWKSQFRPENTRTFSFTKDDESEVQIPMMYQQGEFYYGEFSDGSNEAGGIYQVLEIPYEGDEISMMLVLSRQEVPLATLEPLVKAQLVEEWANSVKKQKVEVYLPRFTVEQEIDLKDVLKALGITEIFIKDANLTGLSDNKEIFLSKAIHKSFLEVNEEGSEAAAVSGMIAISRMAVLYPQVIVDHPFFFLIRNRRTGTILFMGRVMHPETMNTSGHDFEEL
Assay: affinity purification with mass spectrometry; neuroserpin immunoprecipitated from human retinal lysates (control, glaucoma); eluted with Gly-HCl; SDS-PAGE lane excised, trypsin digest, nanoLC-MS/MS

- binding: binds
Substance: plasmin (human retina) (enzyme)

Results are given in words; binding and its absence hold for the method and conditions named. In cells and extracts the contact can be indirect. These calls come from enrichment with a bait or labelling near it, and not all partners need be listed.
